Assay results published in patent publication US20110104167A1, “Compositions and Methods for Diagnosing and Treating Insulin Resistance” (YEDA RESEARCH AND DEVELOPMENT CO. LTD., priority 2004, published 2011).
For at least one compound, name, drawing or mass did not settle the structure.

Test system: CHO-T cells
Test: Phosphorylation (mobility shift) of truncated IRS-1 PH/PTB constructs in CHO-T cells
Format: cell-based, Chinese Hamster
Conditions: 30 min inhibitor, then 100 nM insulin 30 min
Method: FIGS. 7a-c show In vivo phosphorylation of PH/PTB-L in response to insulin. CHO-T cells were transiently transfected with pcDNA3-Myc-PH/PTB (1-1290 nt) or with an insert-free plasmid (control). Twenty-four hours post-transfection, the cells were deprived of serum for 16 h and were then treated with insulin for the indicated time periods. Cell extracts (100 μg) were resolved on 10% SDS-PAGE and immunoblotted with anti-pY or anti-Myc antibodies (FIG. 7a). In parallel, samples (100 μg, 40 μl) were incubated with 3 units (U) of calf intestine phosphatase (CIP) at 37° C. for 1 h. The samples were resolved on 10% SDS-PAGE and immunoblotted with anti-Myc antibodies (FIG. 7b). The results are of a representative of two experiments. FIG. 7c—CHO^PH/PTB-L cells were starved in serum-free F12 medium for 16 h. The cells were treated for 30 min with the indicated inhibitors prior to being treated with 100 nM insulin for 30 min. Cell extracts were prepared, samples were resolved on 10% SDS-PAGE and were immunoblotted with anti-Myc antibodies. Results are of a representative of three experiments.
FIGS. 8a-b show the effects of insulin on Serine phosphorylation of Myc-PH/PTB-L^7A CHO-T cells were transiently transfected with constructs encoding Myc-PH/PTB-L (1-1290 nt), either wild type (WT) or the 7A mutant (FIG. 8a). […]

COC[C@H]1OC(=O)c2coc3c2[C@@]1(C)C1=C(C3=O)[C@@H]2CCC(=O)[C@@]2(C)C[C@H]1OC(C)=O [wortmannin]
effect of inhibitor pretreatment on the mobility shift of PH/PTB-L induced by chronic insulin: completely blocked

CO[C@H]1C[C@@H]2CC[C@@H](C)[C@@](O)(O2)C(=O)C(=O)N2CCCC[C@H]2C(=O)O[C@H]([C@H](C)C[C@@H]2CC[C@@H](O)[C@H](OC)C2)CC(=O)[C@H](C)/C=C(\C)[C@@H](O)[C@@H](OC)C(=O)[C@H](C)C[C@H](C)/C=C/C=C/C=C/1C [rapamycin]
effect of inhibitor pretreatment on the mobility shift of PH/PTB-L induced by chronic insulin: ineffective
